According to PMC7082549:

Molecular target: FLAG/HA-double-tagged METTL8 (human) (UniProt Q9H825)
Experiment: affinity purification with mass spectrometry; large-scale (>10 L) purification of the FLAG/HA-METTL8 complex from 100 mg HeLaS3 nuclear extract by a scheme of chromatographic steps; FASP mass spectrometry (n = 3); controls: NHS column with IgG, METTL8 KO cells; complex resistant to RNase A

B1: THOC1 (protein, UniProt Q96FV9 1-657)
chain: MSPTPPLFSLPEARTRFTKSTREALNNKNIKPLLSTFSQVPGSENEKKCTLDQAFRGILEEEIINHSSCENVLAIISLAIGGVTEGICTASTPFVLLGDVLDCLPLDQCDTIFTFVEKNVATWKSNTFYSAGKNYLLRMCNDLLRRLSKSQNTVFCGRIQLFLARLFPLSEKSGLNLQSQFNLENVTVFNTNEQESTLGQKHTEDREEGMDVEEGEMGDEEAPTTCSIPIDYNLYRKFWSLQDYFRNPVQCYEKISWKTFLKYSEEVLAVFKSYKLDDTQASRKKMEELKTGGEHVYFAKFLTSEKLMDLQLSDSNFRRHILLQYLILFQYLKGQVKFKSSNYVLTDEQSLWIEDTTKSVYQLLSENPPDGERFSKMVEHILNTEENWNSWKNEGCPSFVKERTSDTKPTRIIRKRTAPEDFLGKGPTKKILMGNEELTRLWNLCPDNMEACKSETREHMPTLEEFFEEAIEQADPENMVENEYKAVNNSNYGWRALRLLARRSPHFFQPTNQQFKSLPEYLENMVIKLAKELPPPSEEIKTGEDEDEEDNDALLKENESPDVRRDKPVTGEQIEVFANKLGEQWKILAPYLEMKDSEIRQIECDSEDMKMRAKQLLVAWQDQEGVHATPENLINALNKSGLSDLAESLTNDNETNS
With B1 the binding was “binds”.

Results are given in words; binding and its absence hold for the method and conditions named. Binding seen in cells or lysates may run through a third protein. Here binding means that the protein was enriched with, or labelled near, the bait; the list need not be complete. Sequences can lack the tags named with a protein.
